Measurements as given in patent publication US9482924B2, “Colored composition and image display structure” (FUJIFILM CORPORATION, priority 2011, dated 2016).

Test: Color of colored solution observed with the naked eye
Assay type: physicochemical
Conditions: 15% by mass pigment-n-hexane solution
Text: Azomethine pigments (preparing the above exemplified compounds D-1, D-5, D-11, D-20, D-26, D-38, D-43, D-46, D-49, D-55, D-56, D-57 and D-65 shown in the following Table) and n-hexane as an organic solvent were mixed to prepare a 15% by mass azomethine pigment-n-hexane solution (colored composition), thereby manufacturing 13 kinds of colored solutions.

Compound: CCCCCCCCN(CCCCCCCC)c1ccc(N=C2C(=O)N(c3ccccc3)N=C2C)c(C)c1 [Pigment D-1]
- Solution color: Orange

Compound: CCCCCCCCN1N=C(C(C)(C)C)C(=Nc2ccc(N(CC)CC)cc2C)C1=O [Pigment D-5]
- Solution color: Red-orange

Compound: CCCCCCN(CCCCCC)c1ccc(N=C2C(=O)N(c3ccccc3)N=C2C(C)(C)C)c(C)c1 [Pigment D-11]
- Solution color: Orange

Compound: CCCCCCCCOc1cc(N(CCCC)CCCC)ccc1N=C1C(=O)ON=C1c1ccccc1 [Pigment D-20]
- Solution color: Orange

Compound: CCCCCCCCNC(=O)C1=CC(=Nc2ccc(N(CCCCCCCC)CCCCCCCC)cc2)C=C(C)C1=O [Pigment D-26]
- Solution color: Blue

Compound: CCCCCCCCCCCCCCCCNC(=O)C1=CC(=Nc2ccc(N(CC)CC)cc2CC)c2ccccc2C1=O [Pigment D-38]
- Solution color: Blue

Compound: CCCCCCCCCCCCCCCCCCNC(=O)C1=CC(=Nc2ccc(N(CC)CC)cc2OC)c2ccccc2C1=O [Pigment D-43]
- Solution color: Blue

Compound: CCCCCCN(CCCCCC)c1ccc(N=C2C=C(C(=O)Nc3ccccc3)C(=O)c3ccccc32)c(C)c1 [Pigment D-46]
- Solution color: Blue

Compound: CCCCCCCCN(CCCCCCCC)c1ccc(N=C2C(C(C)(C)C)=Nn3nc(-c4ccccc4)nc32)c(C)c1 [Pigment D-49]
- Solution color: Orange

Compound: CCCCCCOc1cc(N(CCCCCC)CCCCCC)ccc1N=C1C(C#N)=Nn2nc(C(C)(C)C)nc21 [Pigment D-56]
- Solution color: Red

Compound: CCCCCCCCN1CCc2cc(/N=C3/C(C)=Nn4nc(C(C)CNC(=O)C(CCCCCC)Oc5ccc(C(C)(C)CC)cc5C(C)(C)CC)nc43)ccc21 [Pigment D-57]
- Solution color: Red

Compound: CCCCCCN(CCCCCC)c1cc(C)c(N=C2C(C#N)=C(C(=O)OC3C(C(C)(C)C)CC(C)CC3C(C)(C)C)c3nc(C(C)(C)C)nn32)c(C)c1 [Pigment D-65]
- Solution color: Green

Compound: CCN(CC)c1ccc(N=C2C(=O)N(c3ccccc3)N=C2C)c(C)c1 [Pigment D-101, reference compound]
- Solution color: Hardly

Compound: CCN(CC)c1ccc(N=C2C(=O)ON=C2C(C)(C)C)cc1 [Pigment D-102, reference compound]
- Solution color: Hardly

Compound: CCN(CC)c1ccc(N=C2C=C(NC(C)=O)C(=O)C(Cl)=C2C)c(C)c1 [Pigment D-103, reference compound]
- Solution color: Hardly

Compound: CCCCN(CCCC)c1ccc(N=C2C=C(C(=O)NC)C(=O)c3ccccc32)cc1 [Pigment D-104, reference compound]
- Solution color: Hardly

Compound: CCN(CC)c1ccc(/N=C2\C(C#N)=C(C(=O)OC)c3nc(-c4ccc(C(C)(C)C)cc4)nn32)c(C)c1 [Pigment D-106, reference compound]
- Solution color: Hardly
